{
  "sequences": {"note": "The chains behind the UniProt entries cited, without tags or fusion partners. Where a name states a change or a piece, a line headed by the entry shows the natural chain unless it says otherwise.", "UniProt Q91XU3": "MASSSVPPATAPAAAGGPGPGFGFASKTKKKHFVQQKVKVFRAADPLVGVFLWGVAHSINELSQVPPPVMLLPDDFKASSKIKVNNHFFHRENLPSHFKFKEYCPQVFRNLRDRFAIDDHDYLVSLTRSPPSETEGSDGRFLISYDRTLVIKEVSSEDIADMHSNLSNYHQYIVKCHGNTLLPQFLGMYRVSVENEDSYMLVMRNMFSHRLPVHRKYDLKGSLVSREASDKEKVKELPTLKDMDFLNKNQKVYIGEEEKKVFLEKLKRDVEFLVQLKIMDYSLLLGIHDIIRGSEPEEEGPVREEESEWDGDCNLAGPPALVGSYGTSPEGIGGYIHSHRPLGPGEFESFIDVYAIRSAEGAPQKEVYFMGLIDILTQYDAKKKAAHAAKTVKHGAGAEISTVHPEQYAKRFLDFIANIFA", "UniProt Q8VDC1": "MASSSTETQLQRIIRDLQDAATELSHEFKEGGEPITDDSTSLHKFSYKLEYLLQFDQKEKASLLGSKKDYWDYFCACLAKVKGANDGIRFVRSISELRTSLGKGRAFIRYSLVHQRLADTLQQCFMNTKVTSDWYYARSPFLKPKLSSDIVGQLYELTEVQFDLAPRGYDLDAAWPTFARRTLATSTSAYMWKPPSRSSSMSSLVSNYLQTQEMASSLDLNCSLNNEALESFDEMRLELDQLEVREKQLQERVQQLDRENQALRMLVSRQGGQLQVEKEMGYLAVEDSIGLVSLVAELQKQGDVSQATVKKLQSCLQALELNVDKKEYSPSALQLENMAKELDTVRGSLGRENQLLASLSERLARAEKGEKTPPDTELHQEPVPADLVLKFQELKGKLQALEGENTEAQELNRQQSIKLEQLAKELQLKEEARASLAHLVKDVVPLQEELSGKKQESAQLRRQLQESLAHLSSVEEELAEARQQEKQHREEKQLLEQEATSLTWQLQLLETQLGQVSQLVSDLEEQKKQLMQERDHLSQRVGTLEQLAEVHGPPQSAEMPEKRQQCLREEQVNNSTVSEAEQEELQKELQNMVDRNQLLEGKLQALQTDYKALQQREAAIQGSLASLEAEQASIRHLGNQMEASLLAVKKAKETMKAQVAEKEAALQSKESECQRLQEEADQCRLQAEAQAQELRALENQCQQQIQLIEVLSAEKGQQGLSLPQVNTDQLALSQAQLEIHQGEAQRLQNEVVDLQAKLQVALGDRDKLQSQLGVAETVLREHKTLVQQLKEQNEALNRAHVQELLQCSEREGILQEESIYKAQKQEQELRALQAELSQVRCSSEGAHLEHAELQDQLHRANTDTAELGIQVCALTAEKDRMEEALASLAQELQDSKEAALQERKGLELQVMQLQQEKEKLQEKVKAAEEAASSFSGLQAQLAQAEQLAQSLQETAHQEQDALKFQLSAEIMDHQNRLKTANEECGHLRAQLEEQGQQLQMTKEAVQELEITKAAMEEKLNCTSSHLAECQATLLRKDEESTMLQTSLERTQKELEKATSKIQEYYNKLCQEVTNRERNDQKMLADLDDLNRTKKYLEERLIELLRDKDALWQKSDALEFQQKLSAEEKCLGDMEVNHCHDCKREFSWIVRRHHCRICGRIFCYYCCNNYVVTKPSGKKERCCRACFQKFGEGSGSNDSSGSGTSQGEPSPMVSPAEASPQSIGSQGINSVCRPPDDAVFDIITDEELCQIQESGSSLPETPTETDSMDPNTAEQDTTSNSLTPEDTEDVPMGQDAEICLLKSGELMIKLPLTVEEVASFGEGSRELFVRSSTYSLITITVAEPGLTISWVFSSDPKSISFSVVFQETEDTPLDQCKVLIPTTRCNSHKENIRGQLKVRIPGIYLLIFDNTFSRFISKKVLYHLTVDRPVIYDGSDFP", "UniProt Q91WP0": "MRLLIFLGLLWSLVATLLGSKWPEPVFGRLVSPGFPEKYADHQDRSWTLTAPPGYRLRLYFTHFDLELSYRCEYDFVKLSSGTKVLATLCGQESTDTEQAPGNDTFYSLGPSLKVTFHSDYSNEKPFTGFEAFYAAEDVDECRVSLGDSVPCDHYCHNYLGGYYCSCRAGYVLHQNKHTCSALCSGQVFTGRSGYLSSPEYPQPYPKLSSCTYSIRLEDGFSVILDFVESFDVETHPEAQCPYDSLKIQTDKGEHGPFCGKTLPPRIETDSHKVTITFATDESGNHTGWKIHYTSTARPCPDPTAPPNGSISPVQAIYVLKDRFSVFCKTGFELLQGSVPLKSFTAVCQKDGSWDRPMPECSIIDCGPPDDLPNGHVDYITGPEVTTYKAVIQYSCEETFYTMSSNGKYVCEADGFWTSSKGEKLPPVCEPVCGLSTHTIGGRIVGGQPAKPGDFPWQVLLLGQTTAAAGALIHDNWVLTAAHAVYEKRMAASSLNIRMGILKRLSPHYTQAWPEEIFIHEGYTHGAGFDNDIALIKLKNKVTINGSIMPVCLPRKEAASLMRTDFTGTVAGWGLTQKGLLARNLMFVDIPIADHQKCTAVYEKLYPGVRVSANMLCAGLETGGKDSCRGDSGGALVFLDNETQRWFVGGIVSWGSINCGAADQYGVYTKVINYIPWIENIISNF", "UniProt Q91YT0, whole entry": "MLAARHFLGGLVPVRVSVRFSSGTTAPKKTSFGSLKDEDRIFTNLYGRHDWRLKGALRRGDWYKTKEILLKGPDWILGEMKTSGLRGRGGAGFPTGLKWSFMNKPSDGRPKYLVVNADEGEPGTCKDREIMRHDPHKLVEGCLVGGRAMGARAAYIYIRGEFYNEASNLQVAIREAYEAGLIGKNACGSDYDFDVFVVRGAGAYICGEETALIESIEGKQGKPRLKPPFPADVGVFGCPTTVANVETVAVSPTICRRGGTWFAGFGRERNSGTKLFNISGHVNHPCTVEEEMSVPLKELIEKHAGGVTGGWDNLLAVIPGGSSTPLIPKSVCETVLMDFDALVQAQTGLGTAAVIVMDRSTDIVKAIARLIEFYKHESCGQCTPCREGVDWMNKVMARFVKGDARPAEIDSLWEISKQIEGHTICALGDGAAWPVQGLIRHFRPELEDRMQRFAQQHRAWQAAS", "UniProt Q91W18": "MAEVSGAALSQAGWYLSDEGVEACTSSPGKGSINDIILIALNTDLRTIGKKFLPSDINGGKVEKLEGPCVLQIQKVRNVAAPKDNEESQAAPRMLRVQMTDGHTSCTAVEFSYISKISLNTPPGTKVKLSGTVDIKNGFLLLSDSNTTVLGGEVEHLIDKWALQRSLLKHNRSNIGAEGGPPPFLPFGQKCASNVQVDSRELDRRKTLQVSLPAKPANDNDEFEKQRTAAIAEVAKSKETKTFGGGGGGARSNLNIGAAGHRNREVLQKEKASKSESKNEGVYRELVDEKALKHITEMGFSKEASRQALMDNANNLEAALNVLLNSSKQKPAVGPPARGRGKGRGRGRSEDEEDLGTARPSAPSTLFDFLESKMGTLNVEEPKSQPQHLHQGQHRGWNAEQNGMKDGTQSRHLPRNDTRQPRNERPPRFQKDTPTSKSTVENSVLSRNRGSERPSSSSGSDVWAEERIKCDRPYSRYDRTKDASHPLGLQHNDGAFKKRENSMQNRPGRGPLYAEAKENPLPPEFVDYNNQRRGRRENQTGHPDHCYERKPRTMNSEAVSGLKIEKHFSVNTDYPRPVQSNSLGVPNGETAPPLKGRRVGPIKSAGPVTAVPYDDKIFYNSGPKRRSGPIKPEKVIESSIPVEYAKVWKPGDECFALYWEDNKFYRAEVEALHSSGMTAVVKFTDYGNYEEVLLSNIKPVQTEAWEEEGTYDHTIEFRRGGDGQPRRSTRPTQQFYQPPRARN", "UniProt Q924T2, whole entry": "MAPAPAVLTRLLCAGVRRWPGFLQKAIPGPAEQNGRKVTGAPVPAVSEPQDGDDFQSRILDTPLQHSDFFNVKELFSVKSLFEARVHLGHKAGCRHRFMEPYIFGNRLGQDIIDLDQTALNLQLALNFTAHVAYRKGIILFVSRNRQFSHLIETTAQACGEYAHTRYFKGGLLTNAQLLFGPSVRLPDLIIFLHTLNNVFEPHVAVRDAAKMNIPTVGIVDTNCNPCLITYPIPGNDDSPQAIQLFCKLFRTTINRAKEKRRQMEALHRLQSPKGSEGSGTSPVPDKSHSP", "UniProt Q8VCN9": "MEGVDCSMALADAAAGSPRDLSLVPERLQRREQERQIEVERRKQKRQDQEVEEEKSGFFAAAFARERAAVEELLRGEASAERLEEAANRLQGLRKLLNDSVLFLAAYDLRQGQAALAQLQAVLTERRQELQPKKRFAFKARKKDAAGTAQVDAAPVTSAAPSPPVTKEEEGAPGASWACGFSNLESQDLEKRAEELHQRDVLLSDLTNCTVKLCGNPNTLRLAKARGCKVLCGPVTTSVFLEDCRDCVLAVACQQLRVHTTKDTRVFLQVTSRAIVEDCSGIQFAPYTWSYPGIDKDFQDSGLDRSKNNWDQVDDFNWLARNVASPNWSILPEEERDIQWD", "UniProt Q924H7": "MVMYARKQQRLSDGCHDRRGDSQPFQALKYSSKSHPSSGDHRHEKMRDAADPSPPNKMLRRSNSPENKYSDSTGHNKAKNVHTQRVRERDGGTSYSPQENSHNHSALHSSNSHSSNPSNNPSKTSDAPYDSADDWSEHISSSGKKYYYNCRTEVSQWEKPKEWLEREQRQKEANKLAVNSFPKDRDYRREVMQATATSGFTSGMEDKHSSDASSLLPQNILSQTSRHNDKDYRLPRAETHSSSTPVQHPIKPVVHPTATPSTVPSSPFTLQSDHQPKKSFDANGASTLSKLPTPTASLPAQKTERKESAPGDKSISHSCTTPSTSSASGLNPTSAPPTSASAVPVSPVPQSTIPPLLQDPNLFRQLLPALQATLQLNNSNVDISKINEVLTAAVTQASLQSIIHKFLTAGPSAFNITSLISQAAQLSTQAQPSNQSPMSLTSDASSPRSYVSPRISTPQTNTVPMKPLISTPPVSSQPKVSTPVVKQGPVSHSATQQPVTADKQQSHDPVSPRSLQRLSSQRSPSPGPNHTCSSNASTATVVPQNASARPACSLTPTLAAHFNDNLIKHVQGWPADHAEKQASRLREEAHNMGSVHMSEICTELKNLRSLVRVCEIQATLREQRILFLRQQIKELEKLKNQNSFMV", "UniProt Q91ZA3": "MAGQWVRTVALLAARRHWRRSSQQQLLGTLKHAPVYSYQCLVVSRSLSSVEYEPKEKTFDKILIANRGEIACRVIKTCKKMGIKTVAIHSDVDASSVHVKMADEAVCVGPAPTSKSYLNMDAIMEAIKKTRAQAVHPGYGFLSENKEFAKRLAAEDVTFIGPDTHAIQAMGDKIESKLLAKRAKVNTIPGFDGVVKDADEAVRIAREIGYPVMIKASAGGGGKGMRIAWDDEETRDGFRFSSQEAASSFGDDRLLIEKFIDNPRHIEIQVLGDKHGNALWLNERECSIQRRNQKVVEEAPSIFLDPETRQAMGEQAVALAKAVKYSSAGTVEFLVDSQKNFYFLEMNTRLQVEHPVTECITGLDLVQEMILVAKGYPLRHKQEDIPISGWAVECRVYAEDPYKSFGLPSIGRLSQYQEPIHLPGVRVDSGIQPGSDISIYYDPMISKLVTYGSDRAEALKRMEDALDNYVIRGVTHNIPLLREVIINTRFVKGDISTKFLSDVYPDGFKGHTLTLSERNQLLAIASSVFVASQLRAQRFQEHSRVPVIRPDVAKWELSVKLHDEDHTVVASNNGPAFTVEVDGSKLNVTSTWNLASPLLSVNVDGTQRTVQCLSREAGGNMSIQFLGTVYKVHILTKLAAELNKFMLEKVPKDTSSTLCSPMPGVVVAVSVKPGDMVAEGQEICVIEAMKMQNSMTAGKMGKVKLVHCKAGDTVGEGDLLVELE", "UniProt Q91Z53": "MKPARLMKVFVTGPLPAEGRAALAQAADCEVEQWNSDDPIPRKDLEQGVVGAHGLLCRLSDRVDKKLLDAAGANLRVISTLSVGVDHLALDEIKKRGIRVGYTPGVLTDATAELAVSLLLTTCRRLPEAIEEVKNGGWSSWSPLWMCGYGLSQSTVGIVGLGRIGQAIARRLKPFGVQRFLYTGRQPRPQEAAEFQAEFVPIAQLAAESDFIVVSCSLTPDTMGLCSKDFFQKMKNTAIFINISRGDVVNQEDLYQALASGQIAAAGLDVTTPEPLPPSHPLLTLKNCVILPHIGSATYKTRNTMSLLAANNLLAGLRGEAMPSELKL", "UniProt Q8VE88": "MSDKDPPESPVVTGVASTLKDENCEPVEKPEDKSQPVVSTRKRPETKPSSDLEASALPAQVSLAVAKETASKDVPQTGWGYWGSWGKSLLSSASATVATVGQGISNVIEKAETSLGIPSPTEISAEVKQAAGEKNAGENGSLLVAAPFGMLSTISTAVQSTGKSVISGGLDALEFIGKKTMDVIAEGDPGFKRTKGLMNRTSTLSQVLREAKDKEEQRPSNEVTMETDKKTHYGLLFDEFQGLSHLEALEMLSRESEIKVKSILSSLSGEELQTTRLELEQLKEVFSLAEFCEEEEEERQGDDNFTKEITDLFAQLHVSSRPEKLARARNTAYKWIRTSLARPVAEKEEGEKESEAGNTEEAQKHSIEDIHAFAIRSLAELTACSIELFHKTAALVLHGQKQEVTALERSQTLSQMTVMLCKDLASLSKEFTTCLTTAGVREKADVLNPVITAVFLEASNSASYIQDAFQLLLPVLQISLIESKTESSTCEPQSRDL"},
  "source": "the supplement of paper PMC12819154",
  "about": "“High-throughput peptide-centric local stability assay extends protein–ligand identification to membrane proteins, tissues and bacteria” (Nature Structural & Molecular Biology, 2025)",
  "note": "The other results are listed elsewhere or left out. Most entries show no effect beyond the scatter of the controls.",
  "data": [
    {"compound": "CN[C@@H]1C[C@H]2O[C@@](C)([C@@H]1OC)n1c3ccccc3c3c4c(c5c6ccccc6n2c5c31)C(=O)NC4 [staurosporine]", "assay": "log2 fold change of pooled soluble protein (PISA), ligand vs vehicle (log2 ratio); higher = more thermally stabilized", "conditions": "ligand concentration: 20 uM; assay format: PISA pool 52.9/55.5/58.6 C", "values": [
      {"target": "UniProt Q922K7", "log2 fold change of pooled soluble protein": 0.0128},
      {"target": "UniProt Q91VJ5", "log2 fold change of pooled soluble protein": 0.0511},
      {"target": "UniProt Q99JB2", "log2 fold change of pooled soluble protein": -0.0554},
      {"target": "UniProt Q91XU3", "log2 fold change of pooled soluble protein": -0.21},
      {"target": "UniProt Q8VE97", "log2 fold change of pooled soluble protein": -0.0932},
      {"target": "UniProt Q91XE8", "log2 fold change of pooled soluble protein": -0.0687},
      {"target": "UniProt Q8VDC1", "log2 fold change of pooled soluble protein": -0.0808},
      {"target": "UniProt Q91WK5", "log2 fold change of pooled soluble protein": 0.0694},
      {"target": "UniProt Q91WP0", "log2 fold change of pooled soluble protein": 0.194},
      {"target": "UniProt Q91YT0", "log2 fold change of pooled soluble protein": -0.0908},
      {"target": "UniProt Q91X84", "log2 fold change of pooled soluble protein": -0.631},
      {"target": "UniProt Q91V64", "log2 fold change of pooled soluble protein": -0.174},
      {"target": "UniProt Q924A2", "log2 fold change of pooled soluble protein": -0.0527},
      {"target": "UniProt Q91W18", "log2 fold change of pooled soluble protein": -0.128},
      {"target": "UniProt Q924T2", "log2 fold change of pooled soluble protein": -0.332},
      {"target": "UniProt Q91V09", "log2 fold change of pooled soluble protein": 0.0368},
      {"target": "UniProt Q8VED2", "log2 fold change of pooled soluble protein": 0.431},
      {"target": "UniProt Q91V76", "log2 fold change of pooled soluble protein": -0.0643},
      {"target": "UniProt Q91W98", "log2 fold change of pooled soluble protein": -0.139},
      {"target": "UniProt Q8VD31", "log2 fold change of pooled soluble protein": 0.000361},
      {"target": "UniProt Q8VHE0", "log2 fold change of pooled soluble protein": -0.0439},
      {"target": "UniProt Q91VA0", "log2 fold change of pooled soluble protein": 0.018},
      {"target": "UniProt Q8VHH5", "log2 fold change of pooled soluble protein": -0.124},
      {"target": "UniProt Q8VCN9", "log2 fold change of pooled soluble protein": -0.229},
      {"target": "UniProt Q91WE4", "log2 fold change of pooled soluble protein": -0.043},
      {"target": "UniProt Q91YR9", "log2 fold change of pooled soluble protein": 0.0147},
      {"target": "UniProt Q91VS7", "log2 fold change of pooled soluble protein": -0.0812},
      {"target": "UniProt Q91YX5", "log2 fold change of pooled soluble protein": 0.053},
      {"target": "UniProt Q91YE6", "log2 fold change of pooled soluble protein": 0.128},
      {"target": "UniProt Q924H7", "log2 fold change of pooled soluble protein": -0.074},
      {"target": "UniProt Q91ZA3", "log2 fold change of pooled soluble protein": -0.126},
      {"target": "UniProt Q921F2", "log2 fold change of pooled soluble protein": -0.143},
      {"target": "UniProt Q920L1", "log2 fold change of pooled soluble protein": -0.132},
      {"target": "UniProt Q91Z53", "log2 fold change of pooled soluble protein": 0.0482},
      {"target": "UniProt Q8VDI9", "log2 fold change of pooled soluble protein": 0.2},
      {"target": "UniProt Q91VW5", "log2 fold change of pooled soluble protein": 0.0922},
      {"target": "UniProt Q91WN1", "log2 fold change of pooled soluble protein": -0.021},
      {"target": "UniProt Q8VE88", "log2 fold change of pooled soluble protein": 0.00516}
    ]}
  ]
}
